{"source": "PubChem BioAssay AID504791 | Drosophila RNAi Screening Center – 2011", "assay": "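Factors in Argonaute-based small RNA production and activity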 (primary screen)", "cell system": "Drosophila S2-derived reporter cells", "reagents": "long dsRNA against Drosophila genes, about 150-250 ng dsRNA per well (siRNA assay); about 80-120 ng (miRNA assay)", "duration": "about 5 days (siRNA assay); about 4 days (miRNA assay)", "conditions": "copper sulfate induction of reporters: 25 µM (siRNA assay); 200 mM stated (miRNA assay), 1-2 days before reading", "read-out": "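Per-well ratio of Renilla over firefly light, expressed relative to that plate's average ratio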", "units": "stable assay Renilla, run 1 in luminescence; stable assay firefly, run 1 in luminescence", "active means": "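First-pass picks had plate-scaled ratios over 1.5 for the siRNA assay, over 1.6 for the miRNA assay, or under 0.6; two distinct dsRNAs had to score alike on retest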", "note": "The deposit covers about 23,000 reagents; shown is an unselected part of those with a known target gene and a result. Over the whole deposit, 199 (0.86%) got an active call. 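Plate-scaled ratios behind the calls are not deposited; printed light signals are raw; many rows marked increased or decreased are still called inactive.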 Entries without a mark were called inactive. A plus sign joins genes that one reagent is predicted to hit. No sequences are given here. Not given: the direction of the score."}
{"gene knocked down": "Coq7 + shf", "DRSC id": "DRSC18448", "stable assay Renilla, run 1": 6327, "stable assay firefly, run 1": 3.54e5}
{"gene knocked down": "CG2129", "DRSC id": "DRSC18209", "stable assay Renilla, run 1": 9617, "stable assay firefly, run 1": 5.14e5}
{"gene knocked down": "tbrd-2", "DRSC id": "DRSC07020", "stable assay Renilla, run 1": 5531, "stable assay firefly, run 1": 3.77e5}
{"gene knocked down": "mld", "DRSC id": "DRSC13681", "stable assay Renilla, run 1": 4111, "stable assay firefly, run 1": 3.00e5}
{"gene knocked down": "mld", "DRSC id": "DRSC14622", "stable assay Renilla, run 1": 6883, "stable assay firefly, run 1": 3.34e5}
{"gene knocked down": "mld", "DRSC id": "DRSC21771", "stable assay Renilla, run 1": 8479, "stable assay firefly, run 1": 4.23e5}
{"gene knocked down": "Mpv17", "DRSC id": "DRSC17198", "stable assay Renilla, run 1": 5987, "stable assay firefly, run 1": 3.32e5}
{"gene knocked down": "CG31544 (retired record)", "DRSC id": "DRSC12466", "stable assay Renilla, run 1": 6088, "stable assay firefly, run 1": 4.48e5}
{"gene knocked down": "Ets96B", "DRSC id": "DRSC16127", "miRNA reporter change": "reporter ratio lowered past the hit cutoff (active)", "stable assay Renilla, run 1": 4964, "stable assay firefly, run 1": 2.80e5}
{"gene knocked down": "CG8736", "DRSC id": "DRSC07255", "stable assay Renilla, run 1": 6506, "stable assay firefly, run 1": 3.20e5}
{"gene knocked down": "atk", "DRSC id": "DRSC11418", "stable assay Renilla, run 1": 6572, "stable assay firefly, run 1": 3.81e5}
{"gene knocked down": "atk", "DRSC id": "DRSC11769", "stable assay Renilla, run 1": 6983, "stable assay firefly, run 1": 4.34e5}
